In paper doi:10.1101/2025.11.13.683933 one finds binding data, which are given here for 2 substances.

Amino acid sequences for entries named in this document (tags omitted). A change or cut given only in a name is not applied to a line headed by its entry.
UniProt Q9GZV5: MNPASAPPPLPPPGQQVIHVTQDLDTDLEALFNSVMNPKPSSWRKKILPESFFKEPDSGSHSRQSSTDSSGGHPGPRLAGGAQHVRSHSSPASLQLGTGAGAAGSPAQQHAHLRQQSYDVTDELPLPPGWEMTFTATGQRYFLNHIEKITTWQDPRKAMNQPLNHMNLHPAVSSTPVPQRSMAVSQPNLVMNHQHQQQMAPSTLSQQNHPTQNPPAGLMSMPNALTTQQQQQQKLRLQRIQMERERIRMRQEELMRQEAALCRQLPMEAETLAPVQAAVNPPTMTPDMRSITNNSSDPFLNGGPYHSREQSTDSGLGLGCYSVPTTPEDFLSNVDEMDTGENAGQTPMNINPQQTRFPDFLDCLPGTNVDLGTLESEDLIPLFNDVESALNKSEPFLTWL
UniProt Q15562: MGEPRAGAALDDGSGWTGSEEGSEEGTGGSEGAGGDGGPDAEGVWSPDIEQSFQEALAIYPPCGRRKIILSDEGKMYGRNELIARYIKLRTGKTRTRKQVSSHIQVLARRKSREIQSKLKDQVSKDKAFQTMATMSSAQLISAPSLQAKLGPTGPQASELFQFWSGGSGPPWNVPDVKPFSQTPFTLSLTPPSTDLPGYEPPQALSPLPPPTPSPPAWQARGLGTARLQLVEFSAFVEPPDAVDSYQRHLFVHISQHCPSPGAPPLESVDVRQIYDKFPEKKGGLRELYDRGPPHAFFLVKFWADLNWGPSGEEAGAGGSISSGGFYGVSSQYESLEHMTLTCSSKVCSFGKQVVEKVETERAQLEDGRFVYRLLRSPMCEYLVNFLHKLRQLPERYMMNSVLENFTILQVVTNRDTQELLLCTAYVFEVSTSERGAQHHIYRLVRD
UniProt P05412: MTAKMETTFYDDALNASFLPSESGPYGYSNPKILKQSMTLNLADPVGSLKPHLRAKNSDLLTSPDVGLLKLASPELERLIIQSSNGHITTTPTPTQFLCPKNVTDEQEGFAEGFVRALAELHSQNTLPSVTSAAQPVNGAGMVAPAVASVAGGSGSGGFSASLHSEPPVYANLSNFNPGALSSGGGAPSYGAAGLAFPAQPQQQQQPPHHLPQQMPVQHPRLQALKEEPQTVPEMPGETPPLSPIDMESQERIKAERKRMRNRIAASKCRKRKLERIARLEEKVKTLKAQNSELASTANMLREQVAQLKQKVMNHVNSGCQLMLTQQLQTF
UniProt P53539: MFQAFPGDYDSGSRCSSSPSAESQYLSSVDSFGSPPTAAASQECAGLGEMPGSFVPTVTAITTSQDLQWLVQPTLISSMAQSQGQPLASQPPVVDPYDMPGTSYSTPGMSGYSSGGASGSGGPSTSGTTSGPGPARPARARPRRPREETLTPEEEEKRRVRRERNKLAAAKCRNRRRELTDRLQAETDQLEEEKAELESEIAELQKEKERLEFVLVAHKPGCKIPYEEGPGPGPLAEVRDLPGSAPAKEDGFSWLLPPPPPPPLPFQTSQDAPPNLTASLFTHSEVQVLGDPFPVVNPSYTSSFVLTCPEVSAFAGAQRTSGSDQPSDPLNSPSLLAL

This experiment concerns the target transcriptional co-activator with PDZ-binding motif (TAZ) (human (endogenous in AGS and GA0518)) (UniProt Q9GZV5). The experiment in a line: co-IP.

No constants are given. Whether binding was seen depends on the method and setting. Binding seen in cells or lysates may run through a third protein. Some binding calls cover weakened binding; strength is not graded here.

Regarding TEAD2 (from UniProt Q15562 1-447), the binding entry is reported as “binds”.

With “AP-1 heterodimer (c-JUN and FOSB) (from UniProt P05412;P53539) (complex)”, the binding entry is “binds”.
